Data as given in patent publication US20120282177A1 (published 2012).
Results are given in words; binding and its absence hold for the method and conditions named. Some binding calls cover weakened binding; strength is not graded here.

Protein sequences, listed by entry. Tags and fused reporters are not part of them. Lines headed by an entry give the natural chain unless they say otherwise; changes in a name come on top.
UniProt Q01973: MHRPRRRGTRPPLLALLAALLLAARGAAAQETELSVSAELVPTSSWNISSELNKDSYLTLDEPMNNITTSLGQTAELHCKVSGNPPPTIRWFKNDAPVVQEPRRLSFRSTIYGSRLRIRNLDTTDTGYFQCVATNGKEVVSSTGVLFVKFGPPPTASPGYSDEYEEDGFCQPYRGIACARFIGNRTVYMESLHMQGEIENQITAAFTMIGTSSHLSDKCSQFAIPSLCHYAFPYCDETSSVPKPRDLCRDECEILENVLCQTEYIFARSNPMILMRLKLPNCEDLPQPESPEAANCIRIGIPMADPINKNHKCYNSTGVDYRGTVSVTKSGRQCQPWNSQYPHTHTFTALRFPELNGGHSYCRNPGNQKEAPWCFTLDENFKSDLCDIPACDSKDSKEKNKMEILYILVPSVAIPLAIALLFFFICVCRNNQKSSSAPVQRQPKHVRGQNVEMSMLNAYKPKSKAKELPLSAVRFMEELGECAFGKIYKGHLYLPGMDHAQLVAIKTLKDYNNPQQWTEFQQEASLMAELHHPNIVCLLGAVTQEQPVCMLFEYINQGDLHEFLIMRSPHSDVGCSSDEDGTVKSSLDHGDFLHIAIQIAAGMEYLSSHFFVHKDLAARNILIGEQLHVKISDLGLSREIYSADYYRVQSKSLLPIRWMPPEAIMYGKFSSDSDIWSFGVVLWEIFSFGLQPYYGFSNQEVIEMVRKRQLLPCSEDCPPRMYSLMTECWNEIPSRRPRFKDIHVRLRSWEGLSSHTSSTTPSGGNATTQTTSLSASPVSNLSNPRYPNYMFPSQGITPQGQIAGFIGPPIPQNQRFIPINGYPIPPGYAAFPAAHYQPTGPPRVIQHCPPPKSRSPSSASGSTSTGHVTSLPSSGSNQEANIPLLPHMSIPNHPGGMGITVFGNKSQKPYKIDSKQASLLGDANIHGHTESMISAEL

Key:
[1] = target: Tyrosine-protein kinase transmembrane receptor ROR1 (Long Isoform), human, on the cell surface (human) (UniProt Q01973); assay: flow cytometry on A549 cells (FIG. 5a)
[2] = target: Tyrosine-protein kinase transmembrane receptor ROR1 (Long Isoform), human, on the cell surface (human) (UniProt Q01973); assay: flow cytometry on HT29 and NCI-H69 cells (FIG. 5b; members by paragraph 474)
[3] = target: Tyrosine-protein kinase transmembrane receptor ROR1 (Long Isoform), human, on the cell surface (human) (UniProt Q01973); assay: flow cytometry, legend of FIGS. 5a and 5b (members and cell lines per antibody named in paragraph 474)
[4] = target: Tyrosine-protein kinase transmembrane receptor ROR1 (Long Isoform), human, on the cell surface (human) (UniProt Q01973); assay: flow cytometry on A549 and HT29 cells (FIG. 5b)

Measured: binding

B1: ROR1_A8 (Fab, V domains shown)
VH: DVQVVESGGGLVKPGGSLKLSCAASGFTFSSYAMSWVRQTPEKRLEWVAAINPNGGSTYYPDTVKGRFTISRDNAKNTLYLQMSGLRSEDTALYYCARLPWSPYTLDYWGQGTSVTVSS
VL: NIVMTQSPVSLSMAIGEKVTIRCITNTDIDDAMNWYQQKPGEPPKLLISEGNTLRPGVPSRFSSSGYGTDFVFTIENMLSEDVADYYCLQTDNLPLTFGSGTKLAIKR
binds: all assays above
